Test [1] addresses T1, CD20 on stable transfectant line 293-CD20 (UniProt P11836).
T1 sequence (looked up): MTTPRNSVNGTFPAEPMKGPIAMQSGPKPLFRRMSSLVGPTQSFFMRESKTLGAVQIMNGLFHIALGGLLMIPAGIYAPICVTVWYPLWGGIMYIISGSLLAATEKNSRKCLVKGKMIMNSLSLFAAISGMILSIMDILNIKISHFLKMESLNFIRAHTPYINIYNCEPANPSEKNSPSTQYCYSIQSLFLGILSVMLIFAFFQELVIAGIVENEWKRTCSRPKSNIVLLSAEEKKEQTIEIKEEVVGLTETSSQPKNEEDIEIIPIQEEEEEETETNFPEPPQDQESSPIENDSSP
As to the kind of experiment: flow cytometry, 293-CD20 cells.

Test [2] deals with T1, CD20 on stable transfectant line 293-CD20. As to the kind of experiment: flow cytometry, 293-CD20 cells, 200 µl fusion protein, anti-His-PE.

Results are given in words; binding and its absence hold for the method and conditions named. Some binding calls cover weakened binding; strength is not graded here.

Data on one molecule can be found in patent US20210130494A1.

B1: CD22-D123-Leu16 scFv (VH/VL) (construct #65) (protein)
chain: DSSKWVFEHPETLYAWEGACVWIPCTYRALDGDLESFILFHNPEYNKNTSKFDGTRLYESTKDGKVPSEQKRVQFLGDKNKACTLSIHPVHLNDSGQLGLRMESKTEKWMERIHLNVSERPFPPHIQLPPEIQESQEVTLTCLLNFSCYGYPIQLQWLLEGVPMRQAAVTSTSLTIKSVFTRSELKFSPQWSHHGKIVTCQLQDADGKFLSNDTVQLNVKHTPKLEIKVTPSDAIVREGDSVTMTCEVSSSNPEYTTVSWLKDGTSLKKQNTFTLNLREVTKDQSGKYCCQVSNDVGPGRSEEVFLQVQYAPEGGGGSGGGGSGGGGSGGGGSEVQLQQSGAELVKPGASVKMSCKASGYTFTSYNMHWVKQTPGQGLEWIGAIYPGNGDTSYNQKFKGKATLTADKSSSTAYMQLSSLTSEDSADYYCARSNYYGSSYWFFDVWGAGTTVTVSSGSTSGGGSGGGSGGGGSSDIVLTQSPAILSASPGEKVTMTCRASSSVNYMDWYQKKPGSSPKPWIYATSNLASGVPARFSGSGSGTSYSLTISRVEAEDAATYYCQQWSFNPPTFGGGTKLEIKHHHHHH
With B1, the binding result in test [1] and in test [2] was “binds” throughout.
